# Assay results as given in paper PMC10905564.
# Results are given in words; binding and its absence hold for the method and conditions named. Binding can be weak; no strength is given.
# B1: TOPLESS (TPL) (protein, UniProt Q94AI7 1-1131)
# chain: MSSLSRELVFLILQFLDEEKFKETVHKLEQESGFFFNMKYFEDEVHNGNWDEVEKYLSGFTKVDDNRYSMKIFFEIRKQKYLEALDKHDRPKAVDILVKDLKVFSTFNEELFKEITQLLTLENFRENEQLSKYGDTKSARAIMLVELKKLIEANPLFRDKLQFPTLRNSRLRTLINQSLNWQHQLCKNPRPNPDIKTLFVDHSCGPPNGARAPSPVNNPLLGGIPKAGGFPPLGAHGPFQPTASPVPTPLAGWMSSPSSVPHPAVSAGAIALGGPSIPAALKHPRTPPTNASLDYPSADSEHVSKRTRPMGISDEVNLGVNMLPMSFSGQAHGHSPAFKAPDDLPKTVARTLSQGSSPMSMDFHPIKQTLLLVGTNVGDIGLWEVGSRERLVQKTFKVWDLSKCSMPLQAALVKEPVVSVNRVIWSPDGSLFGVAYSRHIVQLYSYHGGEDMRQHLEIDAHVGGVNDISFSTPNKQLCVITCGDDKTIKVWDAATGVKRHTFEGHEAPVYSVCPHYKENIQFIFSTALDGKIKAWLYDNMGSRVDYDAPGRWCTTMAYSADGTRLFSCGTSKDGESFIVEWNESEGAVKRTYQGFHKRSLGVVQFDTTKNRYLAAGDDFSIKFWDMDAVQLLTAIDGDGGLQASPRIRFNKEGSLLAVSGNENVIKIMANSDGLRLLHTFENISSESSKPAINSIAAAAAAAATSAGHADRSANVVSIQGMNGDSRNMVDVKPVITEESNDKSKIWKLTEVSEPSQCRSLRLPENLRVAKISRLIFTNSGNAILALASNAIHLLWKWQRNERNATGKATASLPPQQWQPASGILMTNDVAETNPEEAVPCFALSKNDSYVMSASGGKISLFNMMTFKTMATFMPPPPAATFLAFHPQDNNIIAIGMDDSTIQIYNVRVDEVKSKLKGHSKRITGLAFSNVLNVLVSSGADAQLCVWNTDGWEKQRSKVLPLPQGRPNSAPSDTRVQFHQDQAHFLVVHETQLAIYETTKLECMKQWAVRESLAPITHATFSCDSQLVYASFMDATVCVFSSANLRLRCRVNPSAYLPASLSNSNVHPLVIAAHPQEPNMFAVGLSDGGVHIFEPLESEGKWGVAPPAENGSASGAPTAPSVGASASDQPQR
# B2: CRABS CLAW (CRC) (protein, UniProt Q8L925 1-181)
# chain: MNLEEKPTMTASRASPQAEHLYYVRCSICNTILAVGIPLKRMLDTVTVKCGHCGNLSFLTTTPPLQGHVSLTLQMQSFGGSDYKKGSSSSSSSSTSSDQPPSPSPPFVVKPPEKKQRLPSAYNRFMRDEIQRIKSANPEIPHREAFSAAAKNWAKYIPNSPTSITSGGHNMIHGLGFGEKK
# B3: LATE FLOWERING (LATE), full-length (protein, UniProt Q9FKA9 1-173)
# chain: MEDHYHQVEVEGEEEIKPSKEANKTDENTSSLRIFPCLFCSRKFHSSQALGGHQNAHKKERTAARRAKRAYDFVNNNDFLHTLPVFLSSPSQHHLTILGYPASASVACFPTVHPDHPIFKSSGSHVVLATSHQGRDCKGGYCCQQRVDILDHHYNVVNSDKGKDQCLDLSLHL
# Target: LATE without the EAR motif (LATEΔEAR) (Arabidopsis thaliana)
# Experiment: two-hybrid; bait fused to Gal4 DNA-BD (pDEST_GBKT7), prey fused to Gal4 AD (pDEST_GADT7), yeast strain Y2H gold; spotted onto SD -W/-L or SD -W/-L/-H with 0, 0.05 or 0.1 mM 3-AT; 30°C in the dark, 7-10 days
row,binding,Binder
1,no binding,B1
2,binds,B2
3,binds,B3
